Literature values as cited in patent US11649460B2, “DNA aptamers, method for inhibiting human galectin-1 and method of treating a mammal in need thereof” (priority 2020, dated 2023).
Some of these results come from one statement about several compounds together.

Test system: assessed cell lines
Conditions: in most assessed cell lines; cited from earlier work

CN(C)CCNC(=O)COc1c2cccc1Cc1cccc(c1OCC(=O)NCCN(C)C)Cc1cccc(c1OCC(=O)NCCN(C)C)Cc1cccc(c1OCC(=O)NCCN(C)C)C2 [OTX008]
IC50: > 100 µM

anginex
IC50: > 100 µM
